# In PubChem BioAssay AID540275 (National Center for Advancing Translational Sciences (NCATS), 2011):
# Chains of the proteins cited; added tags and fusions are not shown.
# UniProt Q8NER1, whole entry, looked up: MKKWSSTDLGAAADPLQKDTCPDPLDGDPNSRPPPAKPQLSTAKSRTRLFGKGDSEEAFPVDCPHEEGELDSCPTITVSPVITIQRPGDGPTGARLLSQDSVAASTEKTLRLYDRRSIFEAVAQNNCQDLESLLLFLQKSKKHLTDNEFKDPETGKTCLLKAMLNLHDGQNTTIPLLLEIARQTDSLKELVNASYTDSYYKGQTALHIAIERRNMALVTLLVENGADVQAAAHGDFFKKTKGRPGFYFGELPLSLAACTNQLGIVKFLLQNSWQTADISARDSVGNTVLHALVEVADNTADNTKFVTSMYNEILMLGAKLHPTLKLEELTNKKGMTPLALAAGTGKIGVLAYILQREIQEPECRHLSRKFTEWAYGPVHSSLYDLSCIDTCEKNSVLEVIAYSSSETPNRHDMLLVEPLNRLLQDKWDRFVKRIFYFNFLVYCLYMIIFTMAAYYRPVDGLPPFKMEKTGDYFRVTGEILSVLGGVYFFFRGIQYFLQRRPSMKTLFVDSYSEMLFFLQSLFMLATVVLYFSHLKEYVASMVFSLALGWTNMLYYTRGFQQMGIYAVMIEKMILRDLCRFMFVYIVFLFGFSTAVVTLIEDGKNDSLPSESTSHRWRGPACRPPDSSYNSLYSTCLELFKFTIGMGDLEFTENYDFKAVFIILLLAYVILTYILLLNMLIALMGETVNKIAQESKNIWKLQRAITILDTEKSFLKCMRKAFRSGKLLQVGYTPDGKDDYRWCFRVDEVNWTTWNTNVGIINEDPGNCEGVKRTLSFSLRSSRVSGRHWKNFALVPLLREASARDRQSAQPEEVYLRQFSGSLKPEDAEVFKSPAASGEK
# The whole screen tested about 320,000 compounds, of which about 620 (0.19%) were called active. Inconclusive means that the source gave no clear call. Such entries were picked first, then a sample of the others. Rule as the data show it: active = activation above about 80%; inconclusive = between about 30% and that limit; inactive = weaker than that.
# Target: Transient receptor potential cation channel subfamily V member 1 (Homo sapiens) (UniProt Q8NER1)
# Assay: HTS Assay for Compounds that Act as Agonists of the Vanilloid Receptor 1; also: 0% is about no effect
# Settings: TRPV1-expressing cells, Fluo-8 calcium influx, agonist mode; at 8.33 µM, stronger effect = higher value
# How it was run: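 Cells expressing TRPV1 were dye-loaded with Fluo-8 and read kinetically: 10 s baseline, 3 min after compound (agonist portion), then 2 min after EC20 capsaicin (allosteric enhancer portion). Calcium-bound dye fluorescence at 480/520 nm.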
row,SMILES,activation
1,COc1ccc(C(=O)CN2C(=O)C(C)(C)Oc3ccc(C(=O)N4CCCCCC4)cc32)cc1,inconclusive: 42.3%
2,CC(C)=CCC/C(C)=C/C=N/NC(=O)c1ccc([N+](=O)[O-])cc1,inconclusive: 68.4%
3,N=C1/C(=C\c2coc3ccccc3c2=O)C(=O)N=C2SC(c3ccncc3)=NN12,active: 91%
4,COc1ccc(CNC(=O)COC(=O)c2ccccc2C(=O)c2ccccc2)cc1,inconclusive: 34.5%
5,CCOC(=O)C1=C(O)/C(=C/c2ccccn2)SC1=Nc1ccc(Cl)cc1,inconclusive: 56.3%
6,O=C(Cc1ccccc1)NCC(=O)OC(c1ccccc1)c1ccccc1,inconclusive: 38.3%
7,O=C(CSc1oc(-c2cccs2)nc1S(=O)(=O)c1ccccc1)NC1CCCCC1,inconclusive: 41.9%
8,Cc1ccc(S(=O)(=O)Nc2cc(-c3ccccc3)nn2C)cc1,inactive: 0.845%
9,O=C(O)c1ccc(S(=O)(=O)N(Cc2ccc(F)cc2)C2CCCCC2)cc1,inactive: 4.96%
10,Oc1ccc(-c2cn3ccccc3n2)cc1,inactive: 0.261%
11,O=C(Nc1ccc(S(=O)(=O)N2CCCC2)cc1)c1ccc(Cl)nc1,inconclusive: 54.3%
12,CCc1ccc(/C=C2\SC(N3CCCC3)=NC2=O)cc1,inconclusive: 62.3%
13,CC(C)CCNC(=O)C(=O)Nc1ccccc1,inconclusive: 41.9%
14,COCCCn1c(=O)c2ccccc2n(Cc2ccc(C)cc2)c1=O,inactive: 8.77%
15,CCCCC#Cc1ccc2c(c1)COc1c3ccccc3nn1-2,inconclusive: 53.2%
16,O=Cc1c[nH]c2cccc(OCc3ccccc3)c12,inactive: -0.489%
17,CCC(Cc1ccccc1)n1c(=S)[nH]c2ccccc2c1=O (stereo not given),inconclusive: 44.2%
18,COc1ccc(C)cc1NC(=O)NC(C)c1ccc2c(c1)OCO2 (stereo not given),inconclusive: 34.1%
19,Cc1ccc(C2=Nc3ccccc3SC(c3cccc([N+](=O)[O-])c3)C2)cc1 (stereo not given),inconclusive: 37.9%
20,CSc1nsc(SC)c1C(=O)N1CCN(S(=O)(=O)c2ccc(C)cc2)C1C(C)C (stereo not given),inconclusive: 30.9%
21,O=C(/C=C/c1ccc(F)cc1)Nc1ccc2[nH]c(=O)[nH]c2c1,active: 83.1%
22,Cc1cccc2nc(CSc3ccc(Cl)cc3)cn12,inconclusive: 45.1%
23,COc1ccc2c(c1)C=C(C(=O)NCc1ccc(Cl)cc1)CO2,inconclusive: 63.1%

# Looked up one by one from the list above, three records:
row,SMILES,activation
19,Cc1ccc(C2=Nc3ccccc3SC(c3cccc([N+](=O)[O-])c3)C2)cc1 (stereo not given),inconclusive: 37.9%
9,O=C(O)c1ccc(S(=O)(=O)N(Cc2ccc(F)cc2)C2CCCCC2)cc1,inactive: 4.96%
17,CCC(Cc1ccccc1)n1c(=S)[nH]c2ccccc2c1=O (stereo not given),inconclusive: 44.2%

# Going on with the list.

row,SMILES,activation
1,CC(C)COc1ccc(C(=O)Nc2ccc(N3CCOCC3)cc2N2CCOCC2)cc1,inconclusive: 35.3%
2,CCCCN(CCCC)CCNC(=O)c1cn(CC)c2ccc(S(=O)(=O)N(C)C3CCCCC3)cc2c1=O,inconclusive: 66.4%
3,CC(C)CC(=O)/C(=C\c1ccc(Cl)cc1Cl)n1cncn1,inconclusive: 33.4%
4,O=C(OCc1cn(-c2ccc(Cl)cc2)nn1)c1ccccc1,inconclusive: 35.3%
5,CCOC(=O)C1(Cc2cccc(Cl)c2)CCCN(C(=O)c2c(CC)noc2C)C1 (stereo not given),inconclusive: 62.7%
6,CCC(=O)NC(c1ccco1)c1cc(Cl)c2cccnc2c1O (stereo not given),inactive: 2.49%
7,CCc1nc(Nc2ccc(F)cc2)c2oc3ccccc3c2n1,inconclusive: 66.5%
8,O=C(Nc1ccc(Cl)cc1)Nc1ccc2c(c1)N1CCN=C1S2,inconclusive: 36.3%
9,C=CCOc1ccc(-c2nc3c(c(=O)[nH]c(=O)n3CCC)n2CCCC)cc1,inactive: -0.936%
10,COc1ccc(/C=N\Nc2ccccn2)c(OC)c1,inactive: 0.711%
11,CCOC(=O)c1c(NC(=O)CSc2ncccn2)sc2c1CC(C)(C)NC2(C)C,inactive: 6.07%
12,O=S(Cc1ccc(Br)cc1)Cc1nnc(SCc2ccc(Br)cc2)n1-c1ccccc1 (stereo not given),inactive: -3.52%
13,COCC(C)n1c(SCC(=O)N2CCCCC2)nc2ccccc2c1=O (stereo not given),inconclusive: 38.9%
14,Cc1ccc(-c2nnc(OCC3CCCO3)c3ccccc23)cc1 (stereo not given),inconclusive: 43.8%
15,COC(=O)c1ccc(C(NC(=O)OCc2ccccc2)/C(F)=C/[C@@H](C)C(=O)NCc2ccc(OC)c(OC)c2)cc1 (stereo not given in full),inconclusive: 52.3%
16,COc1cccc(Nc2ncccc2C(=O)Nc2ccccc2)c1,inconclusive: 41.4%
17,Oc1ccc(N=Nc2ccc3c(c2)OCCO3)c(O)c1,inactive: 3.58%
18,COc1ccc(S(=O)(=O)NCc2cccnc2)cc1OC,inactive: -0.655%
19,C=CCn1c(SCCNC(C)=O)nc2cc(-c3ccccc3)sc2c1=O,inconclusive: 41.1%
20,COc1cccc(/C=N\NC(=O)c2ccc(C)nc2)c1,inactive: -0.702%
21,O=C(COC(=O)C1CCC1)Nc1ccc(Oc2ccccc2)cc1,inconclusive: 37.3%
22,S=C(NC1CCCCC1)N1CCCCC1,inactive: 22.8%
